Results taken from article PMC11329928, “Design, synthesis and structure-activity relationship (SAR) studies of an unusual class of non-cationic fatty amine-tripeptide conjugates as novel synthetic antimicrobial agents” (Frontiers in Pharmacology, 2024).

Key:
[1] = test system: human erythrocytes (hRBCs); assay type: cell-based; settings: selective index
[2] = test system: A549, IMR-90 and HeLa cells; settings: selective index

## Ala - Pro -Glu-NH-C18H37 · HCl [DICAM 23]
[1]; HC50 over SC for S. pneumoniae D39
  SI Spn HC50/SC: 2
[1]; HC50 over SC for S. pyogenes T
  SI Spy HC50/SC: 0.6
[2]; mean of the three IC50 values over SC for S. pneumoniae D39
  SI Spn IC50av/SC: 16.7
[2]; mean of the three IC50 values over SC for S. pyogenes T
  SI Spy IC50av/SC: 5
